{
  "sequences": {"note": "By UniProt entry, the sequences of proteins in these tests, tags left out. Residues count along the entry.", "UniProt P19438, residues 30-455": "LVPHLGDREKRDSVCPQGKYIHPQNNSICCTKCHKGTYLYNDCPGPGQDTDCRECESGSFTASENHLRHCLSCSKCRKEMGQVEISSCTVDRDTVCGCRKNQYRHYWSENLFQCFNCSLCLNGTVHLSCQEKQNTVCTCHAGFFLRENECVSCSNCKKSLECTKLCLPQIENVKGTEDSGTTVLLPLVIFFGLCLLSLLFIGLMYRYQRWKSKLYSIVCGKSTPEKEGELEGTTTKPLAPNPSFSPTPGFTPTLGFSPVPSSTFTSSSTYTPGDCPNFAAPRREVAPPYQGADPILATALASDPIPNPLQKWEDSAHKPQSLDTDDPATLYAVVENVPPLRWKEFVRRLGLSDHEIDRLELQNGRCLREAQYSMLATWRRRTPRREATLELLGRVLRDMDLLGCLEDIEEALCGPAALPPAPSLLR"},
  "source": "patent US7029871",
  "biological_target": "TNF R1 (UniProt P19438)",
  "experiment": "complex found in TNF-stimulated cells; method not described",
  "note": "No constants are given. Whether binding was seen depends on the method and setting. Some entries that bind do so weakly or less than the wild type.",
  "data": [
    {"binder": "TNF-R associated death domain protein (TRADD) (protein, UniProt Q15628 1-312, looked up) MAAGQNGHEEWVGSAYLFVESSLDKVVLSDAYAHPQQKVAVYRALQAALAESGGSPDVLQMLKIHRSDPQLIVQLRFCGRQPCGRFLRAYREGALRAALQRSLAAALAQHSVPLQLELRAGAERLDALLADEERCLSCILAQQPDRLRDEELAELEDALRNLKCGSGARGGDGEVASAPLQPPVPSLSEVKPPPPPPPAQTFLFQGQPVVNRPLSLKDQQTFARSVGLKWRKVGRSLQRGCRALRDPALDSLAYEYEREGLYEQAFQLLRRFVQAEGRRATLQRLVEALEENELTSLAEDLLGLTDPNGGLA", "values": [
      {"measurement": "binding", "result": "binds"}
    ]}
  ]
}
